Measurements from patent publication US12522594B2, “2-heteroaryl-3-oxo-2,3-dihydropyridazine-4-carboxamides for the treatment of cancer” (Deutsches Krebsforschungszentrum, priority 2017, dated 2026).
At least one structure is not confirmed: it was looked up by name or label, or the drawing left a doubt.

Tested on: human monocytes
Assay: In vitro assay 4: rescue of TNFα production from human primary monocytes (LPS + KA)
Type: cell-based
Details: reference AHR antagonist; observed predominantly
Procedure: In Vitro Assay 4: Rescue of TNFα Production from Human Primary Monocytes
The ability of the substances to enhance immune cell activity was determined. The substances were tested for their capacity to reverse KA-induced inhibition of TNFα production by LPS-stimulated human monocytes. Human monocytes were purified by negative selection from donor PBMCs using Miltenyi beads and seeded at 2×10^5 cells/well in complete growth medium (RPMI 1640, 10% FCS). Monocytes were incubated with 10 ng/mL LPS (O127:B8, #L4516, Sigma) and 200 uM KA (#3375, Sigma) and substances were added at concentrations of 1 uM, 0.3 uM and 0.1 uM and cultured for 18 hours. LPS alone served as the positive control. TNFα production in the supernatant was measured by Meso Scale Discovery immunoassay and the ability of the substances to rescue TNFα production was calculated as a percentage of LPS stimulation and KA-induced inhibition and normalized to the donor-specific response with the reference AHR antagonist compound GNF-351 (Smith et al., J Pharmacol Exp Ther, 2011, 338(1):318-27).

Cc1cncc(-c2nc(NCCc3c[nH]c4ccccc34)c3ncn(C(C)C)c3n2)c1 [GNF-351, reference compound]
concentration of highest percent rescue with GNF-351: 0.3 and 0.1 uM
